Measurements taken from PMC3547832, “Secondary Metabolism and Development Is Mediated by LlmF Control of VeA Subcellular Localization in Aspergillus nidulans” (PLoS Genetics, 2013).
No constants are given. Whether binding was seen depends on the method and setting. Some results given as binding are weak or reduced against the parent protein; the word gives no strength. Tags and fused reporters may be left off the sequences shown.

Sequences of proteins named here, by UniProt entry; tags and fusion partners are left off.
UniProt C8VTS4: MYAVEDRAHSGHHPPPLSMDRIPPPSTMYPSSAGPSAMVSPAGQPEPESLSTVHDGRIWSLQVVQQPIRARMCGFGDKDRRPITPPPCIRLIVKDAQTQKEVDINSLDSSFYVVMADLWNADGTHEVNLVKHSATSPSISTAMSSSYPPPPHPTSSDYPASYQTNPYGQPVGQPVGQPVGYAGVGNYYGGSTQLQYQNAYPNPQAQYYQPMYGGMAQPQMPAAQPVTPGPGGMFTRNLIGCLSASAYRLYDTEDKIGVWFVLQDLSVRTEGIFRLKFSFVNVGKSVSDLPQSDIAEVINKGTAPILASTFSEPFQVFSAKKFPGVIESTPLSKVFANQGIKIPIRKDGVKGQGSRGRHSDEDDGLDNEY

Molecular target: VelB (yeast two-hybrid fusion, full length) (Aspergillus nidulans) (UniProt C8VTS4)
Assay: two-hybrid; directed yeast two-hybrid based on the LexA DNA binding domain (bait pTLexA, prey pGAD424) in S. cerevisiae L40; histidine growth reporter and lacZ X-gal colorimetric reporter

Binder | binding
VeA N terminus (1-235 aa) (yeast two-hybrid fusion) (domain or fragment, UniProt C8VTV4 1-235) MATLAAPPPPLGESGNSNSVSRITREGKKITYKLNIMQQPKRARACGQGSKSHTDRRPVDPPPVIELNIFESDPHDDSNKTDITFVYNANFFLFATLEPERPIATGKLMTNQGSPVLTGVPVAGVAYLDKPNRAGYFIFPDLSVRNEGSYRFSFHLFEQIKDPKDATEGTQPMPSPVPGKLSSPQEFLEFRLEVISNPFIVYSAKKFPGLTTSTPISRMIAEQGCRVRIRRDVRM | binds
velvet domain of VeA (29-235) (yeast two-hybrid fusion) (domain or fragment, UniProt C8VTV4 29-235) KITYKLNIMQQPKRARACGQGSKSHTDRRPVDPPPVIELNIFESDPHDDSNKTDITFVYNANFFLFATLEPERPIATGKLMTNQGSPVLTGVPVAGVAYLDKPNRAGYFIFPDLSVRNEGSYRFSFHLFEQIKDPKDATEGTQPMPSPVPGKLSSPQEFLEFRLEVISNPFIVYSAKKFPGLTTSTPISRMIAEQGCRVRIRRDVRM | no binding
